Measurements published in the supplement of paper PMC10849652.
Some of the results follow.

Amino acid sequences for entries named in this document (tags omitted). A change or cut given only in a name is not applied to a line headed by its entry.
UniProt Q8N163, whole entry, looked up: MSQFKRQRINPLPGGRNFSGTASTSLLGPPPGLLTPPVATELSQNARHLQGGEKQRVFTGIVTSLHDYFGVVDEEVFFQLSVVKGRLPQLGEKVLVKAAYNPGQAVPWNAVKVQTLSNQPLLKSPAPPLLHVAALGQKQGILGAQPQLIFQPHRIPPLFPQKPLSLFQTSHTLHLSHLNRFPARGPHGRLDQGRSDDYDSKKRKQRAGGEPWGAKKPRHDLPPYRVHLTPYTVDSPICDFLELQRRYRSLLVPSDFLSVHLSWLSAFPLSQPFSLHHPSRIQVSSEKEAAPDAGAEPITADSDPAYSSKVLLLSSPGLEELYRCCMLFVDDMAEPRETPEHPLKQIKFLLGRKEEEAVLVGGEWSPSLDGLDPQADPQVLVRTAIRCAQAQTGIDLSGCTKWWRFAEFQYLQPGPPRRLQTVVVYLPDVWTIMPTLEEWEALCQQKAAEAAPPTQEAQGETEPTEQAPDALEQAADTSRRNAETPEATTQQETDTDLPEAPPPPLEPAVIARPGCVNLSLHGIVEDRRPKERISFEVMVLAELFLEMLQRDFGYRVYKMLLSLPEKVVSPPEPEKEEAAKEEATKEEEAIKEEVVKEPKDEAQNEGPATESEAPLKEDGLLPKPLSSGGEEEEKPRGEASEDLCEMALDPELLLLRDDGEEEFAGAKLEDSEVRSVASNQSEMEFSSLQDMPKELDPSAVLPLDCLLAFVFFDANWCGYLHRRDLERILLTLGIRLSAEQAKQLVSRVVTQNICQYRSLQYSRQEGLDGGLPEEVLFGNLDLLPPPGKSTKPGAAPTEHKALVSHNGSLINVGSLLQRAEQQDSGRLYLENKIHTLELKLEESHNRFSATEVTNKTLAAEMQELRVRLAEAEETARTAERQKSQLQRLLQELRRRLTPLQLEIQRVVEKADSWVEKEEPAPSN
UniProt Q92851: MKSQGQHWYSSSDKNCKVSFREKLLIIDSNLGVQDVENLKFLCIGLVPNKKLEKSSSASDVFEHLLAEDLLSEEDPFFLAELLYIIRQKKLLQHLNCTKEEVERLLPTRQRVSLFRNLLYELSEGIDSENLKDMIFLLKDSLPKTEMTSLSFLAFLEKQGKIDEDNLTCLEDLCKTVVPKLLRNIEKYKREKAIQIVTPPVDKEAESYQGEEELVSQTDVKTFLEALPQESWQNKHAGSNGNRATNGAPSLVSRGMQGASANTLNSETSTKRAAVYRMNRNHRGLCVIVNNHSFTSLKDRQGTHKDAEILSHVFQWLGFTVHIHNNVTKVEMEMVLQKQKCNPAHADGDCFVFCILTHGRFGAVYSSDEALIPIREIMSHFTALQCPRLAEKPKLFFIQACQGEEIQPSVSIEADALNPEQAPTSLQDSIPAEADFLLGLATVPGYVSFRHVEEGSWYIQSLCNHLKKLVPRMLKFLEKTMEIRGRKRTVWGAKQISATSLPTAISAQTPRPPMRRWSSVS
UniProt P14635, whole entry, looked up: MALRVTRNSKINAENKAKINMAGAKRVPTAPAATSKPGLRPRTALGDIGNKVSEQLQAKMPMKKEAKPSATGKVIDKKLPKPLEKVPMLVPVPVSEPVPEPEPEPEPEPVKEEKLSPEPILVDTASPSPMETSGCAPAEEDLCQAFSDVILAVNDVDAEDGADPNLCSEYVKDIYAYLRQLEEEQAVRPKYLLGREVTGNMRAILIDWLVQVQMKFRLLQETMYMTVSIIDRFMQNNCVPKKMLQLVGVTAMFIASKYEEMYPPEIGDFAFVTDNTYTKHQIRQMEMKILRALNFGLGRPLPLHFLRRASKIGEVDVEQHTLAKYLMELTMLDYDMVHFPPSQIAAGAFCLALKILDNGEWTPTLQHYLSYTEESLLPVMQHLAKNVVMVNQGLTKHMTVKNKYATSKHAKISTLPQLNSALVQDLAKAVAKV
UniProt Q13185: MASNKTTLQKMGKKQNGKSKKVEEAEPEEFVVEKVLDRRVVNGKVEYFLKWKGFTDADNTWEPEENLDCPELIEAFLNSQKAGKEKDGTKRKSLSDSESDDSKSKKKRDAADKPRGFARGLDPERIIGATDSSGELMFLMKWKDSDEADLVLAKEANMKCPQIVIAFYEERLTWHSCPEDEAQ
UniProt P42575: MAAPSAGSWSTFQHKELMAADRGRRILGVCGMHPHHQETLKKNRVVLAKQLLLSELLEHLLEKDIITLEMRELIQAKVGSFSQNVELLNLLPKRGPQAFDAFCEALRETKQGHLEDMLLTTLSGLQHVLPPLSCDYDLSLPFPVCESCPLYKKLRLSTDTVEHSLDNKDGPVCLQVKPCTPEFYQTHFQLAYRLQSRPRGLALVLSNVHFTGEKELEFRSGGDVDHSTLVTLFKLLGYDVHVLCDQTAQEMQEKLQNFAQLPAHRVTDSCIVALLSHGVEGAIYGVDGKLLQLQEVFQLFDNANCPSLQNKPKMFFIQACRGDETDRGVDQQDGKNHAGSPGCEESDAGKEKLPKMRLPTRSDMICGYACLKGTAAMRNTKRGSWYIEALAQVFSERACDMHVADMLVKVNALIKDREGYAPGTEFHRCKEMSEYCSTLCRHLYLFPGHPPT
UniProt O15446, whole entry, looked up: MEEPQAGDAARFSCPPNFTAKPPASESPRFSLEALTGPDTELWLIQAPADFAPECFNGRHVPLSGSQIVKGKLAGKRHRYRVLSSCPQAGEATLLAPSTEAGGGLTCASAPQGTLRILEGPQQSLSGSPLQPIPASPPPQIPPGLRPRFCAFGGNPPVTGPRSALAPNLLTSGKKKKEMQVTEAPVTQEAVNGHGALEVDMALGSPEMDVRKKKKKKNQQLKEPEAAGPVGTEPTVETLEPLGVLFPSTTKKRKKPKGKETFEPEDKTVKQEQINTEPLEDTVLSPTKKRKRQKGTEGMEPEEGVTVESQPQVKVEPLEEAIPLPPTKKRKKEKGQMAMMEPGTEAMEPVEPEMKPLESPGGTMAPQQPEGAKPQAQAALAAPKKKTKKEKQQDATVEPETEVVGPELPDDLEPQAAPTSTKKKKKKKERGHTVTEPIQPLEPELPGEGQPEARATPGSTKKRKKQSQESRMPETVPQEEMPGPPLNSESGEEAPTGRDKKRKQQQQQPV
UniProt Q9BUN5: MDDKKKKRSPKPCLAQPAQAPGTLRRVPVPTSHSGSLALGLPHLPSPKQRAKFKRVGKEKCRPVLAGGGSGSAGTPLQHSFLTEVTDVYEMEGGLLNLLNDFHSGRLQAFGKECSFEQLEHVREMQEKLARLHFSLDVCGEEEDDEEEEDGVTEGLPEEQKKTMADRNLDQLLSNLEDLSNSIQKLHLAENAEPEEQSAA
UniProt O75081: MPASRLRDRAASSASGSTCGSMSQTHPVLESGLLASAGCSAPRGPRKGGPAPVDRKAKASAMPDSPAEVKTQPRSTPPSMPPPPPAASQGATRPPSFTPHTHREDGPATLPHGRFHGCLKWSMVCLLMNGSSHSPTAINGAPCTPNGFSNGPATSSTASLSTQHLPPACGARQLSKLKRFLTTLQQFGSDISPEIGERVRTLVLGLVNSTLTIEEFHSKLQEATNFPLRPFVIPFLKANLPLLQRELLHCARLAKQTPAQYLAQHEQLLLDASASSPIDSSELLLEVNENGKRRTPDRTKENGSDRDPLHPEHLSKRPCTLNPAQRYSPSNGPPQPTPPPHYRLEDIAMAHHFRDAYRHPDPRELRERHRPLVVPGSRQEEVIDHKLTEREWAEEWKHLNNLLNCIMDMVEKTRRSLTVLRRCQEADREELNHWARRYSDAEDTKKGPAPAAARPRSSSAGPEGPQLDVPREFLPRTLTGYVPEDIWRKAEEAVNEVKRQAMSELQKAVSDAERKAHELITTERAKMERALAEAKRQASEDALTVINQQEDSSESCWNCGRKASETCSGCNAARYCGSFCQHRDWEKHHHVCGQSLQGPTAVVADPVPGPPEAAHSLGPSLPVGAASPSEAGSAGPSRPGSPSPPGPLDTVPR
UniProt P48643, whole entry, looked up: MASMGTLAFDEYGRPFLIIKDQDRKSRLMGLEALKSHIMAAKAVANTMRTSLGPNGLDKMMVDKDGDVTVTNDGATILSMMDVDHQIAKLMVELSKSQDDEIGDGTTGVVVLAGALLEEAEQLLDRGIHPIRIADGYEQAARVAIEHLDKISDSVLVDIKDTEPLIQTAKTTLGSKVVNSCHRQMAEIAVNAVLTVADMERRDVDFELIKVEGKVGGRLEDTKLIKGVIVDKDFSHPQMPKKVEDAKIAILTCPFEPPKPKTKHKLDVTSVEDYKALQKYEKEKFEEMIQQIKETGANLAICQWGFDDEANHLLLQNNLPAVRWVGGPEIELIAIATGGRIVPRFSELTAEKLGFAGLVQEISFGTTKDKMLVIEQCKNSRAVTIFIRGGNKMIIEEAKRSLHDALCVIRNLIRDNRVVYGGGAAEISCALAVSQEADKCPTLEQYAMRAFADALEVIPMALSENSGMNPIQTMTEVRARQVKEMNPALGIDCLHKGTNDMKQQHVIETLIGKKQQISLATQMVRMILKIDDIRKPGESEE
UniProt Q8WUD4: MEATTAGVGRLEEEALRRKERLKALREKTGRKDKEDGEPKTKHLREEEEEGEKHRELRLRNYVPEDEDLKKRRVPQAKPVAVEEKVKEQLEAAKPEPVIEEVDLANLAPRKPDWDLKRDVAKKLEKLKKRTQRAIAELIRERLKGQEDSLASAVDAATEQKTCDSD
UniProt Q4G0I0: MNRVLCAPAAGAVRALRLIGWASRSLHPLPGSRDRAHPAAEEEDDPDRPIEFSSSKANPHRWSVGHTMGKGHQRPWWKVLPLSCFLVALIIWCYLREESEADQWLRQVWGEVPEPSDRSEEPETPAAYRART
UniProt Q9Y3X0: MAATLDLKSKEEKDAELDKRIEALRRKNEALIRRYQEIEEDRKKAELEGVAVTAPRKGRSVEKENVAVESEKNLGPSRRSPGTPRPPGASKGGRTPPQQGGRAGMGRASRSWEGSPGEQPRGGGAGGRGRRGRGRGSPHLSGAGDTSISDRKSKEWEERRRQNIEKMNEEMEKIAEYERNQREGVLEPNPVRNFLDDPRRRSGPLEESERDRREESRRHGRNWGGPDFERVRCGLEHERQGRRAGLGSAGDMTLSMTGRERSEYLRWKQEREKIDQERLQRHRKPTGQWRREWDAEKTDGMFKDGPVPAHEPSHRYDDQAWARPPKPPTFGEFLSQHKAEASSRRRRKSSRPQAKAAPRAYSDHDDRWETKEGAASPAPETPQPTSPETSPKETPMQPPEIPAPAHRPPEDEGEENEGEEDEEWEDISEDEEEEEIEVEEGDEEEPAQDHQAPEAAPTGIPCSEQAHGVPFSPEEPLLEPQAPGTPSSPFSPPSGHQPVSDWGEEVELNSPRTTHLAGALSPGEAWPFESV
UniProt Q5T0F9: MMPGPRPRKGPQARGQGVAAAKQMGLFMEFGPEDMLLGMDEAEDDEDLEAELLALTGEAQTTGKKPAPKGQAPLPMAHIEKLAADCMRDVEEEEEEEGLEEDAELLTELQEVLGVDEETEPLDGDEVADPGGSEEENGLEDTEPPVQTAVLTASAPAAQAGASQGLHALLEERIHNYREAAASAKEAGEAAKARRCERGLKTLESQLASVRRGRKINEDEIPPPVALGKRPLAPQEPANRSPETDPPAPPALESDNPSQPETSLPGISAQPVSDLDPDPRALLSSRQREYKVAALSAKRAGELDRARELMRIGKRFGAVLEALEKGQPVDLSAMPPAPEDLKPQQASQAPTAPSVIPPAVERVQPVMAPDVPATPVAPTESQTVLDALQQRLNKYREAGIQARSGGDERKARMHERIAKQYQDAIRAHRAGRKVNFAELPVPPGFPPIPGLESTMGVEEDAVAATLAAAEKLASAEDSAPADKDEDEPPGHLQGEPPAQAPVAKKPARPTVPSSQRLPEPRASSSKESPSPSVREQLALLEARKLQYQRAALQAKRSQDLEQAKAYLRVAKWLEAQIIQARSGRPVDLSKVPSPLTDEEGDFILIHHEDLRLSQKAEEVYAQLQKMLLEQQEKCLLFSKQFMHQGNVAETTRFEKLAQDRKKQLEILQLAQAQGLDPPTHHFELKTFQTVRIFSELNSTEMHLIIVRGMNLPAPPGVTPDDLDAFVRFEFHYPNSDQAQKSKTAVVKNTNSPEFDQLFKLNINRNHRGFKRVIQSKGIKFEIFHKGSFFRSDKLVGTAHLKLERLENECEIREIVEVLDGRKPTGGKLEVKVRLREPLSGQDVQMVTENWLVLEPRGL
UniProt Q8IWD4: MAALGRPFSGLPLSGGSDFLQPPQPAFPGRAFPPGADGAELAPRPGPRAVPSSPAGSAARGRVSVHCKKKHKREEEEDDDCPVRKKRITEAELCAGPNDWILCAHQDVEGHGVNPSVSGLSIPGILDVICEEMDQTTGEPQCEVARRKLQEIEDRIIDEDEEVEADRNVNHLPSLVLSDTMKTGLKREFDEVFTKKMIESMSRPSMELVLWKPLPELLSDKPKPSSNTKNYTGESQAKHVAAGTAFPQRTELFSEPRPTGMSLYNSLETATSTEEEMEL

Key:
Assay in all cases: log2 fold change, soluble protein after heating vs DMSO (PISA); higher = thermal stabilisation; K562 lysate, 10 uM; active = over 0.2 and 3.5 SD of the protein, either way, in both replicates (recomputed)
vemurafenib = compound: CCCS(=O)(=O)Nc1ccc(F)c(C(=O)c2c[nH]c3ncc(-c4ccc(Cl)cc4)cc23)c1F [vemurafenib]
Method in brief: (§1)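 To prepare the extract, K562 pellets were dounce-homogenised in PBS pH 7.4 with 1 mM MgCl2, giving crude material at 1 mg/mL protein. This was treated with 10 μM compound for 30 min, then heated in aliquots for 3 min over 48°C-58°C before pooling and addition of NP-40 to 0.5% at 4°C. Centrifugation at 21,000xg for 90 min left soluble protein in the supernatant, which TMTpro 16plex LC-MS/MS quantified with equalised channel sums. Results are log-two fold changes in thermal stability compared with solvent controls, from duplicates.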

[1] = compound: CCCS(=O)(=O)Nc1ccc(F)c(C(=O)c2c[nH]c3ncc(Cl)cc23)c1F
Method in brief: as §1

barasertib = compound: CCN(CCCOc1ccc2c(Nc3cc(CC(=O)Nc4cccc(F)c4)[nH]n3)ncnc2c1)CCOP(=O)(O)O [barasertib]
Method in brief: as §1

[2] = compound: CC[C@@H]1C(=O)N(C)c2cnc(Nc3ccc(C(=O)NC4CCN(C)CC4)cc3OC)nc2N1C1CCCC1
Method in brief: as §1

volasertib = compound: CC[C@@H]1C(=O)N(C)c2cnc(Nc3ccc(C(=O)N[C@H]4CC[C@H](N5CCN(CC6CC6)CC5)CC4)cc3OC)nc2N1C(C)C [volasertib]
Method in brief: as §1

[3] = compound: CCn1c(C(=O)N(C2CC2)C2CC2)cc2c3c(ncn3C)c(Nc3cc(C)n(C)n3)nc21
Method in brief: as §1

[4] = compound: CCn1cc(-c2ccnc3[nH]c(-c4cccc(CN(C)C)c4)cc23)c(-c2ccc(NC(=O)N(C)C)cc2)n1
Method in brief: as §1

[5] = compound: CN1CCC(CNc2ccc3ncc(-c4cccc(OC(F)(F)F)c4)n3n2)CC1
Method in brief: as §1

saracatinib = compound: CN1CCN(CCOc2cc(OC3CCOCC3)c3c(Nc4c(Cl)ccc5c4OCO5)ncnc3c2)CC1 [saracatinib]
Method in brief: as §1

sotrastaurin = compound: CN1CCN(c2nc(C3=C(c4c[nH]c5ccccc45)C(=O)NC3=O)c3ccccc3n2)CC1 [sotrastaurin]
Method in brief: as §1

alvocidib = compound: CN1CC[C@H](c2c(O)cc(O)c3c(=O)cc(-c4ccccc4Cl)oc23)[C@H](O)C1 [alvocidib]
Method in brief: as §1

Tubastatin A = compound: CN1CCc2c(c3ccccc3n2Cc2ccc(C(=O)NO)cc2)C1 [Tubastatin A]
Method in brief: as §1

[6] = compound: CNC(=O)C1=CC=CC=C1NC2=NC(=NC=C2Cl)NC3=C(C=C(C=C3)N4CCOCC4)OC
Method in brief: as §1

defactinib = compound: CNC(=O)c1ccc(Nc2ncc(C(F)(F)F)c(NCc3nccnc3N(C)S(C)(=O)=O)n2)cc1 [defactinib]
Method in brief: as §1

[7] = compound: CNc1nc(-c2ccc3c(N)n[nH]c3c2)cc(N2C[C@@H](C(=O)NC3CCCCC3)CC[C@H]2C)n1
Method in brief: as §1

encorafenib = compound: COC(=O)N[C@@H](C)CNc1nccc(-c2cn(C(C)C)nc2-c2cc(Cl)cc(NS(C)(=O)=O)c2F)n1 [encorafenib]
Method in brief: as §1

[8] = compound: COC(=O)[C@H](CCSC)NC(=O)C1=C(C=C(C=C1)NC[C@H](CS)N)C2=CC=CC=C2
Method in brief: as §1

alisertib = compound: COc1cc(Nc2ncc3c(n2)-c2ccc(Cl)cc2C(c2c(F)cccc2OC)=NC3)ccc1C(=O)O [alisertib]
Method in brief: as §1

[9] = compound: COc1cc2nc(-c3cc(F)ccc3O)nc(N[C@@H]3CNC[C@H]3C(C)(C)O)c2cc1OC
Method in brief: as §1

gefitinib = compound: COc1cc2ncnc(Nc3ccc(F)c(Cl)c3)c2cc1OCCCN1CCOCC1 [gefitinib]
Method in brief: as §1

Measured: log2 fold change

CCAR2 (UniProt Q8N163)
inactive: vemurafenib -0.007 | [1] -0.004 | barasertib -0.047 | [2] -0.01 | volasertib -0.031 | [3] 0.01 | [4] -0.057 | [5] 0.032 | saracatinib -0.002 | sotrastaurin 0.007 | alvocidib -0.052 | Tubastatin A -0.096 | [6] 0.001 | defactinib 0.018 | [7] -0.02 | encorafenib 0.014 | [8] 0.011 | alisertib 0.014 | [9] 0 | gefitinib 0.003

CASP10 isoform 4 (UniProt Q92851)
inactive: vemurafenib -0.003 | [1] -0.029 | barasertib -0.009 | [2] -0.041 | volasertib -0.027 | [3] -0.02 | [4] 0.002 | [5] 0.06 | saracatinib -0.008 | sotrastaurin -0.018 | alvocidib 0.035 | Tubastatin A 0.005 | [6] 0.006 | defactinib 0.021 | [7] 0.046 | encorafenib 0.008 | [8] 0.016 | alisertib -0.036 | [9] 0.012 | gefitinib 0.017

CCNB1 (UniProt P14635)
inactive: vemurafenib 0.032 | [1] -0.021 | barasertib 0.019 | [2] 0.03 | volasertib -0.043 | [3] -0.031 | [4] -0.023 | [5] -0.012 | saracatinib 0.002 | sotrastaurin -0.038 | alvocidib -0.015 | Tubastatin A 0.021 | [6] -0.003 | defactinib -0.117 | [7] 0.028 | encorafenib 0.029 | [8] -0.023 | alisertib 0 | gefitinib -0.024
active: [9] 0.407

CBX3 (UniProt Q13185)
inactive: vemurafenib 0.016 | [1] 0 | barasertib -0.016 | [2] 0.063 | volasertib 0.027 | [3] -0.024 | [4] -0.066 | [5] 0.074 | saracatinib -0.027 | sotrastaurin -0.081 | alvocidib -0.008 | Tubastatin A 0.058 | [6] -0.04 | defactinib 0.036 | [7] 0.035 | encorafenib -0.051 | [8] -0.064 | alisertib 0.034 | [9] -0.008 | gefitinib -0.01

CASP2 (UniProt P42575)
inactive: vemurafenib -0.019 | [1] 0.069 | barasertib -0.05 | [2] -0.005 | volasertib 0.01 | [3] 0.007 | [4] -0.092 | [5] 0.077 | saracatinib -0.009 | sotrastaurin -0.009 | alvocidib -0.031 | Tubastatin A -0.027 | [6] 0.033 | defactinib 0.029 | [7] 0.011 | encorafenib -0.043 | [8] -0.007 | alisertib -0.019 | [9] 0.001 | gefitinib -0.087

CD3EAP isoform 2 (UniProt O15446)
inactive: vemurafenib 0.012 | [1] 0.016 | barasertib -0.022 | [2] 0.056 | volasertib -0.006 | [3] -0.055 | [4] -0.109 | [5] 0.007 | saracatinib 0.009 | sotrastaurin -0.009 | alvocidib -0.033 | Tubastatin A 0.009 | [6] 0.009 | defactinib 0.026 | [7] 0.062 | encorafenib 0.033 | [8] -0.184 | alisertib -0.006 | [9] 0.012 | gefitinib -0.032

CCDC28B (UniProt Q9BUN5)
inactive: vemurafenib 0.122 | [1] 0.131 | barasertib -0.078 | [2] 0.055 | volasertib -0.06 | [3] 0.02 | [4] 0.095 | [5] -0.146 | saracatinib 0.055 | sotrastaurin 0.006 | alvocidib -0.143 | Tubastatin A -0.096 | [6] 0.01 | defactinib 0.033 | [7] 0.099 | encorafenib 0.029 | [8] -0.08 | alisertib 0.04 | [9] 0.065 | gefitinib -0.047

CBFA2T3 (UniProt O75081)
inactive: vemurafenib -0.043 | [1] 0.018 | barasertib -0.055 | [2] 0.003 | volasertib -0.02 | [3] -0.007 | [4] -0.023 | [5] -0.018 | saracatinib 0.021 | sotrastaurin 0.015 | alvocidib -0.039 | Tubastatin A -0.131 | [6] 0.028 | defactinib 0.004 | [7] 0.051 | encorafenib 0.056 | [8] 0.037 | alisertib 0.031 | [9] -0.042 | gefitinib 0.018

CBL (UniProt P22681)
inactive: vemurafenib 0.007 | [1] 0.003 | barasertib -0.012 | [2] 0.046 | volasertib 0.016 | [3] -0.036 | [4] 0.002 | [5] -0.008 | saracatinib 0.013 | sotrastaurin -0.017 | alvocidib -0.001 | Tubastatin A 0.025 | [6] 0.027 | defactinib 0.038 | [7] 0.054 | encorafenib 0.023 | [8] -0.076 | alisertib -0.015 | [9] 0 | gefitinib -0.005

CCT5 (UniProt P48643)
inactive: vemurafenib -0.029 | [1] -0.009 | barasertib -0.03 | [2] -0.026 | volasertib 0.007 | [3] 0.006 | [4] -0.009 | [5] 0.043 | saracatinib -0.009 | sotrastaurin -0.004 | alvocidib 0.003 | Tubastatin A 0.012 | [6] -0.012 | defactinib -0.015 | [7] -0.012 | encorafenib -0.008 | [8] -0.03 | alisertib -0.006 | [9] -0.002 | gefitinib 0

CCDC12 (UniProt Q8WUD4)
inactive: vemurafenib -0.028 | [1] -0.001 | barasertib -0.071 | [2] 0.035 | volasertib 0.043 | [3] -0.009 | [4] 0.106 | [5] 0.003 | saracatinib 0.015 | sotrastaurin 0.066 | alvocidib -0.012 | Tubastatin A 0.092 | [6] -0.016 | defactinib -0.013 | [7] -0.018 | encorafenib -0.054 | [8] -0.047 | alisertib -0.009 | [9] 0.01 | gefitinib -0.003

CCT2 (UniProt P78371)
inactive: vemurafenib -0.022 | [1] -0.011 | barasertib -0.042 | [2] -0.015 | volasertib 0.01 | [3] -0.005 | [4] 0.03 | [5] -0.02 | saracatinib -0.007 | sotrastaurin -0.018 | alvocidib 0.013 | Tubastatin A 0.037 | [6] 0.01 | defactinib -0.013 | [7] -0.019 | encorafenib -0.009 | [8] -0.018 | alisertib 0.003 | [9] 0.001 | gefitinib -0.021

CCSMST1 (UniProt Q4G0I0)
inactive: vemurafenib 0.055 | [1] 0.018 | barasertib 0.241 | [2] -0.008 | volasertib 0.028 | [3] 0.015 | [4] 0.009 | [5] -0.058 | saracatinib -0.12 | sotrastaurin 0.051 | alvocidib 0.015 | Tubastatin A 0.049 | [6] 0.034 | defactinib 0.018 | [7] -0.043 | encorafenib 0.027 | [8] 0.031 | alisertib -0.042 | [9] -0.022 | gefitinib -0.273

CCDC9 (UniProt Q9Y3X0)
inactive: vemurafenib 0.003 | [1] -0.001 | barasertib -0.021 | [2] 0.066 | volasertib -0.007 | [3] -0.057 | [4] 0.054 | [5] 0.039 | saracatinib 0.001 | sotrastaurin 0.039 | alvocidib 0.015 | Tubastatin A 0.009 | [6] 0.003 | defactinib 0.035 | [7] 0.039 | encorafenib 0.005 | [8] -0.027 | alisertib -0.044 | [9] -0.009 | gefitinib -0.043

CC2D1B isoform 2 (UniProt Q5T0F9)
inactive: vemurafenib -0.017 | [1] 0.027 | barasertib -0.027 | [2] 0.095 | volasertib 0.007 | [3] -0.012 | [4] -0.004 | [5] 0.048 | saracatinib 0.012 | sotrastaurin 0.044 | alvocidib -0.019 | Tubastatin A -0.005 | [6] 0.015 | defactinib -0.035 | [7] 0.062 | encorafenib -0.012 | [8] 0.048 | alisertib 0.075 | [9] -0.003 | gefitinib -0.007

CCDC117 (UniProt Q8IWD4)
inactive: vemurafenib 0.052 | [1] 0.018 | barasertib -0.065 | [2] 0.175 | volasertib -0.005 | [3] -0.031 | [4] -0.041 | [5] 0.056 | saracatinib 0.043 | sotrastaurin 0.093 | alvocidib 0.004 | Tubastatin A 0.047 | [6] -0.015 | defactinib -0.028 | [7] 0.056 | encorafenib -0.015 | [8] -0.04 | alisertib 0.013 | [9] -0.029 | gefitinib -0.028

2 consecutive entries out of the list so far, for reference:
CCDC9 (UniProt Q9Y3X0)
inactive: vemurafenib 0.003 | [1] -0.001 | barasertib -0.021 | [2] 0.066 | volasertib -0.007 | [3] -0.057 | [4] 0.054 | [5] 0.039 | saracatinib 0.001 | sotrastaurin 0.039 | alvocidib 0.015 | Tubastatin A 0.009 | [6] 0.003 | defactinib 0.035 | [7] 0.039 | encorafenib 0.005 | [8] -0.027 | alisertib -0.044 | [9] -0.009 | gefitinib -0.043

CC2D1B isoform 2 (UniProt Q5T0F9)
inactive: vemurafenib -0.017 | [1] 0.027 | barasertib -0.027 | [2] 0.095 | volasertib 0.007 | [3] -0.012 | [4] -0.004 | [5] 0.048 | saracatinib 0.012 | sotrastaurin 0.044 | alvocidib -0.019 | Tubastatin A -0.005 | [6] 0.015 | defactinib -0.035 | [7] 0.062 | encorafenib -0.012 | [8] 0.048 | alisertib 0.075 | [9] -0.003 | gefitinib -0.007
